Paper PMC4849470
These are yes or no findings as the source states them, for the method shown. In cells and extracts the contact can be indirect. Some results given as binding are weak or reduced against the parent protein; the word gives no strength. Tags and fused reporters may be left off the sequences shown. One block for each molecule: values may come before it.

Chains of the proteins cited; added tags and fusions are not shown.
UniProt Q9Y2J4: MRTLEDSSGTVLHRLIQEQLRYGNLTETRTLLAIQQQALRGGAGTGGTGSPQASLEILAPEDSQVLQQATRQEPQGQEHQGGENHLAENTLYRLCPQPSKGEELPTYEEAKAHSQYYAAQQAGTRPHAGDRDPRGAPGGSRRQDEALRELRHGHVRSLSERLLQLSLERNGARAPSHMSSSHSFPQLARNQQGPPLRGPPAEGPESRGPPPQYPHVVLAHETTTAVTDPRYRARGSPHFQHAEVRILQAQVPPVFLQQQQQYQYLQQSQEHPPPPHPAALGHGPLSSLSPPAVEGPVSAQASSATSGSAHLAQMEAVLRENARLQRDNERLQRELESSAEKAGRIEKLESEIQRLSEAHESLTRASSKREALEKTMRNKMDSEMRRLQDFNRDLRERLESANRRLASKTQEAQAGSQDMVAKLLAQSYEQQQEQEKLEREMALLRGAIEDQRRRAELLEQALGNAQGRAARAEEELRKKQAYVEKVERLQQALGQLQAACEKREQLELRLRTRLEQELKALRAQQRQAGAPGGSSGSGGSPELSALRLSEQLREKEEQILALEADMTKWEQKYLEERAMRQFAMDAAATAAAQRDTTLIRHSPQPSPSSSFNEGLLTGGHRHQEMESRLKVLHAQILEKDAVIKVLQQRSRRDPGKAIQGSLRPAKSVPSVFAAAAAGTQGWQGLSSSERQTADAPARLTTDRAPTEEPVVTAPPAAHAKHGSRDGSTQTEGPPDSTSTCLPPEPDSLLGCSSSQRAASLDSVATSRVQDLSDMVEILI

Biological target: endogenous USP9x protein (human (endogenous in HEK293T)) (UniProt Q93008)
Test: co-IP; HA-tagged AMOT, AMOT-L1 or AMOT-L2 expressed in cells; IP of endogenous USP9x (Supplementary Figure S2a)

binding: binds
Molecule: HA-tagged AMOT-L2 (from UniProt Q9Y2J4 1-779)

binding: binds
B1: HA-tagged AMOT-L1 (protein, UniProt Q8IY63 1-956)
chain: MWRAKLRRGTCEPAVKGSPSACYSPSSPVQVLEDSTYFSPDFQLYSGRHETSALTVEATSSIREKVVEDPLCNFHSPNFLRISEVEMRGSEDAAAGTVLQRLIQEQLRYGTPTENMNLLAIQHQATGSAGPAHPTNNFSSTENLTQEDPQMVYQSARQEPQGQEHQVDNTVMEKQVRSTQPQQNNEELPTYEEAKAQSQFFRGQQQQQQQQGAVGHGYYMAGGTSQKSRTEGRPTVNRANSGQAHKDEALKELKQGHVRSLSERIMQLSLERNGAKQHLPGSGNGKGFKVGGGPSPAQPAGKVLDPRGPPPEYPFKTKQMMSPVSKTQEHGLFYGDQHPGMLHEMVKPYPAPQPVRTDVAVLRYQPPPEYGVTSRPCQLPFPSTMQQHSPMSSQTSSASGPLHSVSLPLPLPMALGAPQPPPAASPSQQLGPDAFAIVERAQQMVEILTEENRVLHQELQGYYDNADKLHKFEKELQRISEAYESLVKSTTKRESLDKAMRNKLEGEIRRLHDFNRDLRDRLETANRQLSSREYEGHEDKAAEGHYASQNKEFLKEKEKLEMELAAVRTASEDHRRHIEILDQALSNAQARVIKLEEELREKQAYVEKVEKLQQALTQLQSACEKREQMERRLRTWLERELDALRTQQKHGNGQPANMPEYNAPALLELVREKEERILALEADMTKWEQKYLEESTIRHFAMNAAATAAAERDTTIINHSRNGSYGESSLEAHIWQEEEEVVQANRRCQDMEYTIKNLHAKIIEKDAMIKVLQQRSRKDAGKTDSSSLRPARSVPSIAAATGTHSRQTSLTSSQLAEEKKEEKTWKGSIGLLLGKEHHEHASAPLLPPPPTSALSSIASTTAASSAHAKTGSKDSSTQTDKSAELFWPSMASLPSRGRLSTTPAHSPVLKHPAAKGTAEKLENSPGHGKSPDHRGRVSSLLHKPEFPDGEMMEVLI
